A negative result means that nothing was seen under these conditions.
Molecular target: Taq DNA polymerase (Thermus aquaticus) (UniProt P19821)
Experiment: inhibition of the protein
Details: 25 C, purified recombinant protein, protein details: New England Biolabs, single-stranded DNA, dose not given here

Chains of the proteins cited; added tags and fusions are not shown.
UniProt P19821, whole entry: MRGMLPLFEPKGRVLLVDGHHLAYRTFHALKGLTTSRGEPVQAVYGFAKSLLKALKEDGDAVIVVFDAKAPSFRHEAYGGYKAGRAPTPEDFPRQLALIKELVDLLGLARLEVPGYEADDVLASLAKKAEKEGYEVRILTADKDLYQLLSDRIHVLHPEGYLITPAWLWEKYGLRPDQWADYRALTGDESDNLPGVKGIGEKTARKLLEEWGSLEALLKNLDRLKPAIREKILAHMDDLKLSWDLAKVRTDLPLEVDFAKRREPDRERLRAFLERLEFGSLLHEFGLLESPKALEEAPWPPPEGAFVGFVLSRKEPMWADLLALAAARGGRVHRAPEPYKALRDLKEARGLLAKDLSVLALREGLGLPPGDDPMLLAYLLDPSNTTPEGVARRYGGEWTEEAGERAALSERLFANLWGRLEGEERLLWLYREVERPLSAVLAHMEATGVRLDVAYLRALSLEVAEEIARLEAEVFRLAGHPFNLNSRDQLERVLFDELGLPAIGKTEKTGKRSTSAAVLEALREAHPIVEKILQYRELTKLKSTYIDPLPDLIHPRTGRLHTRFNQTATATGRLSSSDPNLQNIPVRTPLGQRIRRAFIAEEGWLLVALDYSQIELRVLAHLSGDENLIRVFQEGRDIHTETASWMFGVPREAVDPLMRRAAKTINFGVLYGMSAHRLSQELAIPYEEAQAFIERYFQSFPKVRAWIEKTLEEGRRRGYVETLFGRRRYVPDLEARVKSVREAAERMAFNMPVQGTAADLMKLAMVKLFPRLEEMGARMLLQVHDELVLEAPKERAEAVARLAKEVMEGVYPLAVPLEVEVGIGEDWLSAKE

Sequence: CGTAATACTGTACATTAGGAAGAGCTTTGCTCTGAAGTAGCGCCGCCGTAATGTACAGTATTACG [ON→ON switch (too strong unlocking)]
- functional effect of the aptamer (rA at position 17, rest DNA, ON with and without Pb2+ (no activity change; too strong unlocking)): not active

Sequence: CTGTACATTGTAGGAAGAGCTTTGCTCTGAAGTAGCGCCGCCGTACAATGTACAGTATTGTACG [ON→OFF switch (optimal unlocking)]
- functional effect of the aptamer (rA at position 12, rest DNA, no Pb2+: polymerase ON): not active

Sequence: AAGACAATAGGAAGACAATGTACAGTATTGTCTGAAGTAGCGCCGCCGTATTGTCTTC [ON→ON switch (too weak locking)]
- functional effect of the aptamer (rA at position 9, rest DNA, binding module disabled even before Pb2+ addition (dG -21.72 kcal/mol)): not active

Sequence: GCGGCGTCACTATAGGAAGATCCAATGTACAGTATTGGATCTGAAGTAGCGCCGCCGTATAGTGACGCCGC [OFF→OFF switch (too strong locking)]
- functional effect of the aptamer (rA at position 14, rest DNA, polymerase inhibited even with Pb2+ (too strong locking, dG -41.48 kcal/mol)): active
